In PMC10482907:
No constants are given. Whether binding was seen depends on the method and setting. In cells and extracts the contact can be indirect. Some binding calls cover weakened binding; strength is not graded here. For part of these data: Tags and fused reporters may be left off the sequences shown. Each block holds one binder with its values, some of them ahead of it.

Protein sequences, listed by entry. Tags and fused reporters are not part of them.
UniProt Q6P5F9: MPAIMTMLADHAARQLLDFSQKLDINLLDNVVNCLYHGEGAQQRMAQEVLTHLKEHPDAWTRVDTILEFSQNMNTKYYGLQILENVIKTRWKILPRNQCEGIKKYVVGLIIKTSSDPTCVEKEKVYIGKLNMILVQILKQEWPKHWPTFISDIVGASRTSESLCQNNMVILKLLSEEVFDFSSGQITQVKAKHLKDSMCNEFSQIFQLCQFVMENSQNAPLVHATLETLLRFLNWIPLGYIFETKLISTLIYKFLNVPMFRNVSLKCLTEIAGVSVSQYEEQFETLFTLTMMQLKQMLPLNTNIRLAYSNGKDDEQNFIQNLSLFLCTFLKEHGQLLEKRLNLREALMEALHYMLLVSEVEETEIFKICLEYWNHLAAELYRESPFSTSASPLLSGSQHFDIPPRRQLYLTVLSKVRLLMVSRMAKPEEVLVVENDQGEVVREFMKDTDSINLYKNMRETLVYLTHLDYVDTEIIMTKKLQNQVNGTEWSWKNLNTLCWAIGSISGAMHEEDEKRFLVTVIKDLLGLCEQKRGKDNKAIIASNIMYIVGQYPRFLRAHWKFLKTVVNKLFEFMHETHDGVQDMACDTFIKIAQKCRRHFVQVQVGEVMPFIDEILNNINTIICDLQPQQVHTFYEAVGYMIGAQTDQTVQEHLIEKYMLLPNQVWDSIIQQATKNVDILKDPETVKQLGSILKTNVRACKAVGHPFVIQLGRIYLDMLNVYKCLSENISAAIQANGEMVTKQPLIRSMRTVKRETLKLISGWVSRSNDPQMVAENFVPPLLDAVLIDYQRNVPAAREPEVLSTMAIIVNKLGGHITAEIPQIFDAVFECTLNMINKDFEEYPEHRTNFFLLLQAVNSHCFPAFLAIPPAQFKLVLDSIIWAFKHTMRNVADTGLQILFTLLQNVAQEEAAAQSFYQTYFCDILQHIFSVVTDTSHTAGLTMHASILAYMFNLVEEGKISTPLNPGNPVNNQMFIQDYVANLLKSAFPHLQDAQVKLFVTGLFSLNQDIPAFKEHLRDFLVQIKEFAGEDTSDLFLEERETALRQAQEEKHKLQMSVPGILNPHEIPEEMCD
UniProt O14980: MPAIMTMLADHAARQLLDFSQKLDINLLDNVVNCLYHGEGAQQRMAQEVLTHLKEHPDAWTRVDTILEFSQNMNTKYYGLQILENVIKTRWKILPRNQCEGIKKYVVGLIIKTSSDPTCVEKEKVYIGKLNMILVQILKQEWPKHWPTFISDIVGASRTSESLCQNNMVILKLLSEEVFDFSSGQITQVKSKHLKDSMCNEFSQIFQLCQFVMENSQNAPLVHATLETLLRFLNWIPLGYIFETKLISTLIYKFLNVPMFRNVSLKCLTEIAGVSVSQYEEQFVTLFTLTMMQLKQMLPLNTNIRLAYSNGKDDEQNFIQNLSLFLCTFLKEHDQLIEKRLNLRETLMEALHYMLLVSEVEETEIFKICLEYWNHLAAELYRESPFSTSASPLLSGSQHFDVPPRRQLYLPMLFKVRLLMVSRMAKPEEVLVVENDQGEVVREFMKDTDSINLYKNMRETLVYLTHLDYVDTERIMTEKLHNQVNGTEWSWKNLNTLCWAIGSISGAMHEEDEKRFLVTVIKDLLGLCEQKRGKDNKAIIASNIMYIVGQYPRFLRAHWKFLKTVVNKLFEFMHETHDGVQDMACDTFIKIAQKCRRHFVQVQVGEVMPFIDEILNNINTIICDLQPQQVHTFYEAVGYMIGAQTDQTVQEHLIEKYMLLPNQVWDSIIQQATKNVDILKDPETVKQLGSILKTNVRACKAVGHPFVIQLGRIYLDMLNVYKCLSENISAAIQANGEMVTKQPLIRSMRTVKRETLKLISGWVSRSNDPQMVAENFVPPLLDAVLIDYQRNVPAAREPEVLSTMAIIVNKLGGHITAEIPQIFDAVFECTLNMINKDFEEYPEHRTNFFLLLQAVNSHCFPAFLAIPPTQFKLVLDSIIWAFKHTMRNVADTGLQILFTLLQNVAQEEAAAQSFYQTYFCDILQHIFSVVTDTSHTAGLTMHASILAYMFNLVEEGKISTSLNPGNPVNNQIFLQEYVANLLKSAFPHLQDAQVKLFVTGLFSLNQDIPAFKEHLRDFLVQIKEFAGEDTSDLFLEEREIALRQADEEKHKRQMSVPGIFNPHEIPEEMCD

Columns and labels:
[1] = target: export receptor CRM1 (mouse (endogenous in AML12)) (UniProt Q6P5F9); experiment: proximity ligation; Duolink PLA on endogenous proteins in AML12 cells treated with 100 μM HDCA or DMSO for 24 h
[2] = target: export receptor CRM1 (mouse (endogenous in AML12)) (UniProt Q6P5F9); experiment: co-IP; endogenous proteins of AML12 cells; CRM1 antibody on magnetic beads, protein extracts at 4 °C overnight, Western blot; cells with or without 100 μM HDCA
GFP-CRM1 = GFP-CRM1 (UniProt O14980); experiment: co-IP; Flag-GFP-RAN (wild type or G5A/P49A/V51A), HA-GFP-PPARα and GFP-CRM1 overexpressed in HEK293T cells; antibody (Flag, HA) on magnetic beads, protein extracts at 4 °C overnight, Western blot; with or without 100 μM HDCA; which antibody precipitated which pair is not told

- binding [1]: binds
- binding [2]: binds
B1: peroxisome proliferator-activated receptor α (protein, UniProt P23204 1-468)
chain: MVDTESPICPLSPLEADDLESPLSEEFLQEMGNIQEISQSIGEESSGSFGFADYQYLGSCPGSEGSVITDTLSPASSPSSVSCPVIPASTDESPGSALNIECRICGDKASGYHYGVHACEGCKGFFRRTIRLKLVYDKCDRSCKIQKKNRNKCQYCRFHKCLSVGMSHNAIRFGRMPRSEKAKLKAEILTCEHDLKDSETADLKSLGKRIHEAYLKNFNMNKVKARVILAGKTSNNPPFVIHDMETLCMAEKTLVAKMVANGVEDKEAEVRFFHCCQCMSVETVTELTEFAKAIPGFANLDLNDQVTLLKYGVYEAIFTMLSSLMNKDGMLIAYGNGFITREFLKNLRKPFCDIMEPKFDFAMKFNALELDDSDISLFVAAIICCGDRPGLLNIGYIEKLQEGIVHVLKLHLQSNHPDDTFLFPKLLQKMVDLRQLVTEHAQLVQVIKKTESDAALHPLLQEIYRDMY

- binding (GFP-CRM1): binds
B2: HA-GFP-PPARα (protein, UniProt Q07869 1-468)
chain: MVDTESPLCPLSPLEAGDLESPLSEEFLQEMGNIQEISQSIGEDSSGSFGFTEYQYLGSCPGSDGSVITDTLSPASSPSSVTYPVVPGSVDESPSGALNIECRICGDKASGYHYGVHACEGCKGFFRRTIRLKLVYDKCDRSCKIQKKNRNKCQYCRFHKCLSVGMSHNAIRFGRMPRSEKAKLKAEILTCEHDIEDSETADLKSLAKRIYEAYLKNFNMNKVKARVILSGKASNNPPFVIHDMETLCMAEKTLVAKLVANGIQNKEAEVRIFHCCQCTSVETVTELTEFAKAIPGFANLDLNDQVTLLKYGVYEAIFAMLSSVMNKDGMLVAYGNGFITREFLKSLRKPFCDIMEPKFDFAMKFNALELDDSDISLFVAAIICCGDRPGLLNVGHIEKMQEGIVHVLRLHLQSNHPDDIFLFPKLLQKMADLRQLVTEHAQLVQIIKKTESDAALHPLLQEIYRDMY
